In the supplement of paper PMC10849652:
The list shows a part of the results.

Protein sequences, listed by entry. Tags and fused reporters are not part of them. Lines headed by an entry give the natural chain unless they say otherwise; changes in a name come on top.
UniProt O60830: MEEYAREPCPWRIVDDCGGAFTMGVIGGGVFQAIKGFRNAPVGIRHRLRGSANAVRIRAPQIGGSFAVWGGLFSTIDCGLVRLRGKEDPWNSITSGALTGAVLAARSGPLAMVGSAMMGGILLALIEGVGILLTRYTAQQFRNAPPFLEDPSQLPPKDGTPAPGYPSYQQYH
UniProt Q13769: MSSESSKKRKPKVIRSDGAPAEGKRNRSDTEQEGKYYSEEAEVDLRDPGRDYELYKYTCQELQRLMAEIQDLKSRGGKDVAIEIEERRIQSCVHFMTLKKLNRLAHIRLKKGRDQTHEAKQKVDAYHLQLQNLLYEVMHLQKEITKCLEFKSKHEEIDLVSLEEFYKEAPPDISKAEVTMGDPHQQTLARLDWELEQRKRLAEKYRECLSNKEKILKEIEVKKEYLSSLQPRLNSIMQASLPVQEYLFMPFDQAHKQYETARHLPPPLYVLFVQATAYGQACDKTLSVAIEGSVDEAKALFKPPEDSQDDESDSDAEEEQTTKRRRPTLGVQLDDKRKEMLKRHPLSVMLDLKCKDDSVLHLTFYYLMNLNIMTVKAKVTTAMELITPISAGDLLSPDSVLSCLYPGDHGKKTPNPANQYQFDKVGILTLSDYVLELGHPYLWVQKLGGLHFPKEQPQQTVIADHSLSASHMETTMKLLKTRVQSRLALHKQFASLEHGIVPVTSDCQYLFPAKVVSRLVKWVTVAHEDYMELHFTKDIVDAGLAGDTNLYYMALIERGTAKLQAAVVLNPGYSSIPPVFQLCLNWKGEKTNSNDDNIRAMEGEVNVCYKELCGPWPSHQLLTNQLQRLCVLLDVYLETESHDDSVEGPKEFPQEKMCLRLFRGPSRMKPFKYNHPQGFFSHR
UniProt Q9UGI8: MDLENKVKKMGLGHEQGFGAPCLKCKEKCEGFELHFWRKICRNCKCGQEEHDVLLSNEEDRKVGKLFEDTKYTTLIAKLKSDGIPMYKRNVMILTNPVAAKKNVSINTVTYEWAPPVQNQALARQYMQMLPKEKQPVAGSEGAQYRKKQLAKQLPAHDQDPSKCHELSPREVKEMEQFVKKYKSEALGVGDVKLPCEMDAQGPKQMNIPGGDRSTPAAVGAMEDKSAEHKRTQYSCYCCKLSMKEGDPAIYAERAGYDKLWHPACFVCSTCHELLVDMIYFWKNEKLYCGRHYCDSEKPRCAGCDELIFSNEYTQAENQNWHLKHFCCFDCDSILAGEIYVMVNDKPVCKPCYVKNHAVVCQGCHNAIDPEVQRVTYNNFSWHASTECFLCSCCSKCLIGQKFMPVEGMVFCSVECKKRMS
UniProt Q5JTD0: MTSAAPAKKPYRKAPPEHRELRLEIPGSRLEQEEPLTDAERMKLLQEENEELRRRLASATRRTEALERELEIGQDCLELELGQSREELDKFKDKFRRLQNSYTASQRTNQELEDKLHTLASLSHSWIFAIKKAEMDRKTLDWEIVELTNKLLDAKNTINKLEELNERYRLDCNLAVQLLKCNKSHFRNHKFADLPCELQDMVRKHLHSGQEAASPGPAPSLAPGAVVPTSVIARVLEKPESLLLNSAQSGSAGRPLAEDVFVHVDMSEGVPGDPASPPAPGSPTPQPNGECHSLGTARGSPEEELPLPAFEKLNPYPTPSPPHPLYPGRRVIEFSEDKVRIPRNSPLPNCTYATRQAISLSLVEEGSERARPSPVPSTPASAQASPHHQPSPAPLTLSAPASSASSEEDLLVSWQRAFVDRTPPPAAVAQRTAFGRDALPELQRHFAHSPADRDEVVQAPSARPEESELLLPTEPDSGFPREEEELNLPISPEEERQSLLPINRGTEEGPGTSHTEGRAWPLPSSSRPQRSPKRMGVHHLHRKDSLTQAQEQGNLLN
UniProt B5MCY1: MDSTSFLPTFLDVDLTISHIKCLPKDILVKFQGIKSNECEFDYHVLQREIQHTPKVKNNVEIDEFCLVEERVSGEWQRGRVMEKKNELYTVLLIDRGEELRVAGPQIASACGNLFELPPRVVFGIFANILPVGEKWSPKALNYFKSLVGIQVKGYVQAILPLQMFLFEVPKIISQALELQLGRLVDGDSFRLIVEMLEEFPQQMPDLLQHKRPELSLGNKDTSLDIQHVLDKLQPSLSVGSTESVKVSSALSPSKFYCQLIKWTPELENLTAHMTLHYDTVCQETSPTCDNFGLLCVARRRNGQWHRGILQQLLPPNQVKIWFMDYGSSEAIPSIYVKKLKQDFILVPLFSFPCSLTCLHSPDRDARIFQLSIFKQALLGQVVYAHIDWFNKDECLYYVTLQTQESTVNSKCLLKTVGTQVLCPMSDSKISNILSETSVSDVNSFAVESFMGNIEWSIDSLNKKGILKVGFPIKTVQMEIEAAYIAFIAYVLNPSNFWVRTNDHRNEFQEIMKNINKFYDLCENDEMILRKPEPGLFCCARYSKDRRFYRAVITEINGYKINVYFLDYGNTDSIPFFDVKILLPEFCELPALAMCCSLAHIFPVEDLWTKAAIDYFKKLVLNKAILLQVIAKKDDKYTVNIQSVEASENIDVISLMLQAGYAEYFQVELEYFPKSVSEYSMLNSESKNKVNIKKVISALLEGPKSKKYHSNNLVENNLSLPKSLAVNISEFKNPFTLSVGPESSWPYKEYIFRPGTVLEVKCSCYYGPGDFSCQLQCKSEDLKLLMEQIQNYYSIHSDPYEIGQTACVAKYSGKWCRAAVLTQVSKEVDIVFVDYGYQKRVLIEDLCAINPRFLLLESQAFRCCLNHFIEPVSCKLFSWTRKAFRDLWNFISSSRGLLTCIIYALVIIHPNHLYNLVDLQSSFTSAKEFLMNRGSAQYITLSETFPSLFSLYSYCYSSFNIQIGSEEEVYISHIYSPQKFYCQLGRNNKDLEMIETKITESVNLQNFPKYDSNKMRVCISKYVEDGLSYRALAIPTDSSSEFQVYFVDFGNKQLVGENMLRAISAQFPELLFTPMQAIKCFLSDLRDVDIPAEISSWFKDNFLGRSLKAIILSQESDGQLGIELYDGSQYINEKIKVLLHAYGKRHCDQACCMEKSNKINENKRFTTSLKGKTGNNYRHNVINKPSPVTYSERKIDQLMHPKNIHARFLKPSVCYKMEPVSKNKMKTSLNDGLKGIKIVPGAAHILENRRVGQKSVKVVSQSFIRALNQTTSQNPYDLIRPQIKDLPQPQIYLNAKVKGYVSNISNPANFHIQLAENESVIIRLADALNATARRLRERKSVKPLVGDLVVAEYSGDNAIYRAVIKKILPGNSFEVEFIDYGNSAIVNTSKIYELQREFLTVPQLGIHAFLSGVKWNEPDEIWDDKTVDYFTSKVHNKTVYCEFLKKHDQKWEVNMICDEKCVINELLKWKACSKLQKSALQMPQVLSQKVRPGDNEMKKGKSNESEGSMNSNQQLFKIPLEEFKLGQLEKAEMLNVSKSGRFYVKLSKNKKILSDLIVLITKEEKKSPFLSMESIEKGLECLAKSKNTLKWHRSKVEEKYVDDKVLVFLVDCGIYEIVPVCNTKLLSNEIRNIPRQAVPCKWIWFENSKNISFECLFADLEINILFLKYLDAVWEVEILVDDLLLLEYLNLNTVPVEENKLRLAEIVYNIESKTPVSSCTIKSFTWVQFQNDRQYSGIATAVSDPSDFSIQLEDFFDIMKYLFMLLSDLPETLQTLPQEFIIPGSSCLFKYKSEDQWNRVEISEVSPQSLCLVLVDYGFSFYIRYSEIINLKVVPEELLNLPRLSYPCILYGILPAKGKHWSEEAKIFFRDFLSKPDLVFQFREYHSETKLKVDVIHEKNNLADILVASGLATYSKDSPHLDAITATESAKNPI
UniProt Q9Y5J9: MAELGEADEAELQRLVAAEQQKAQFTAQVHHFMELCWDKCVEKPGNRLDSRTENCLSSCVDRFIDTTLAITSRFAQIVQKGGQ
UniProt O00142: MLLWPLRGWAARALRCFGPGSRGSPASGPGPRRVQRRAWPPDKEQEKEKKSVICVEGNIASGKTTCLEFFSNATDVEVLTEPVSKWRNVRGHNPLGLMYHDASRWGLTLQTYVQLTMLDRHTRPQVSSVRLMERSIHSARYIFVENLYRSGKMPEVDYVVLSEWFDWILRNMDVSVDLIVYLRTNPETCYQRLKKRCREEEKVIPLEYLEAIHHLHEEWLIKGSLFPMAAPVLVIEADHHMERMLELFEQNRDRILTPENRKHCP
UniProt Q96RS0: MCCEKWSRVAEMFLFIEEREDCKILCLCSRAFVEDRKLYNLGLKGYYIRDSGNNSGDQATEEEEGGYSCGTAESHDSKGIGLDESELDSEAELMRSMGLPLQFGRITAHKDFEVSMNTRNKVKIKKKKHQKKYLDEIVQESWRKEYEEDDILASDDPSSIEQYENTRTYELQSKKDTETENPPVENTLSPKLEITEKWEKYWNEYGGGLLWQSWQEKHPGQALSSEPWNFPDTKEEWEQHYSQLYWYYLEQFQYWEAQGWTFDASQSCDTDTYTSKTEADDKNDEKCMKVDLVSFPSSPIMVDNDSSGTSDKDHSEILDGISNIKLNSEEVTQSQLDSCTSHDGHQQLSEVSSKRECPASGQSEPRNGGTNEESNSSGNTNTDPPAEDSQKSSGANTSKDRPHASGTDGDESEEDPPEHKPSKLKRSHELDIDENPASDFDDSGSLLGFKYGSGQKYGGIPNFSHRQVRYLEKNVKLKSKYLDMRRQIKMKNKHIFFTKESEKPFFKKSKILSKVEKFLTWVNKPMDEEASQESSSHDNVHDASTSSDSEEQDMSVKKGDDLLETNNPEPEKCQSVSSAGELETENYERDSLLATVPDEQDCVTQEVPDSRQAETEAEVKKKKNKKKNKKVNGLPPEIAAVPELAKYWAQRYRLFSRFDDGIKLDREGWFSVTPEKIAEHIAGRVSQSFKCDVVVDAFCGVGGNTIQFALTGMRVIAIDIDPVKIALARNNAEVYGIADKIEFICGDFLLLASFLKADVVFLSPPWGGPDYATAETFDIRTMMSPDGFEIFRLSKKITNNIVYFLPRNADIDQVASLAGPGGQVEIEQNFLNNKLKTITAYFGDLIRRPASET
UniProt Q96FV9: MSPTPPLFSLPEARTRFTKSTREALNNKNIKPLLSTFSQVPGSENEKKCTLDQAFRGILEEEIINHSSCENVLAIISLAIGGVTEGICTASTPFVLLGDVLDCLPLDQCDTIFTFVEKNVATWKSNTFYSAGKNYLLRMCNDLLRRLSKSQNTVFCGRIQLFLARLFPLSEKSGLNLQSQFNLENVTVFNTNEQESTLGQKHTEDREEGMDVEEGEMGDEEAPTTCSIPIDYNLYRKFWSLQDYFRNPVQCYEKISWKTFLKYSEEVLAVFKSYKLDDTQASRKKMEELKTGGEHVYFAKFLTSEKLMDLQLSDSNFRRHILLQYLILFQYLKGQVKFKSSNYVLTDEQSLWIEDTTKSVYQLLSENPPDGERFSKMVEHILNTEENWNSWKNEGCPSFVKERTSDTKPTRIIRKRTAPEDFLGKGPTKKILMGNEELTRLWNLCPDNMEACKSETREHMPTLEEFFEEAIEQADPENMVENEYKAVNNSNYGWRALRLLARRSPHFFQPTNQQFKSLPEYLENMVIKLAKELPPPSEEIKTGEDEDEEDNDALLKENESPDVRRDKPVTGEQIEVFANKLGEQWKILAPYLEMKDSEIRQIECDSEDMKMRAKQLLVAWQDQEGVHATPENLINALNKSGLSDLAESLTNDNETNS
UniProt P01137, whole entry, looked up: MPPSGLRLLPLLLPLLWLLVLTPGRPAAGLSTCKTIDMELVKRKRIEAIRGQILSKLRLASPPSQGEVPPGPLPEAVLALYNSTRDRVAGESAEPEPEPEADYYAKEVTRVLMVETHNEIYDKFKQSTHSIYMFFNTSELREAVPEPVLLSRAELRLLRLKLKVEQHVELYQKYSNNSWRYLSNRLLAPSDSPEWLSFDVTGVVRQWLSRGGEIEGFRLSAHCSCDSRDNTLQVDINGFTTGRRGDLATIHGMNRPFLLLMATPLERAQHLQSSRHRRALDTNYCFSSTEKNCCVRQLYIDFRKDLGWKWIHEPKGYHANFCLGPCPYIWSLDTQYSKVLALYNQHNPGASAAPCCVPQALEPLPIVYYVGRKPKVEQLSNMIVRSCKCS
UniProt Q9ULP9: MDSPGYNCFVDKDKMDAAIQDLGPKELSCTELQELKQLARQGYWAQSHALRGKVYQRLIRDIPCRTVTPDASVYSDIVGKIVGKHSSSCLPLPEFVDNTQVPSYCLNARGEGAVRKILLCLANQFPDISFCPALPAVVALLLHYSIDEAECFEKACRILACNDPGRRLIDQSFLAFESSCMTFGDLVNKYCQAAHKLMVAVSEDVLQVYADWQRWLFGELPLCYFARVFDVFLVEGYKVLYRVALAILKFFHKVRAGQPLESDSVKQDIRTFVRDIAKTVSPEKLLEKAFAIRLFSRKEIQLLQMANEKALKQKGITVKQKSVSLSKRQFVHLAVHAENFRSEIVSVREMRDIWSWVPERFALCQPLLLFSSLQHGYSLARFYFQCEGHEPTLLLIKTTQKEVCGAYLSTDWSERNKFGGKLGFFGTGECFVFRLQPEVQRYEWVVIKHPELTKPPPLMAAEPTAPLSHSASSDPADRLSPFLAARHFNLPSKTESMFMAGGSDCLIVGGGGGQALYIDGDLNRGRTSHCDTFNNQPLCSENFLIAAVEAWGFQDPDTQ

Tests used:
Assay in all cases: log2 fold change, soluble protein after heating vs DMSO (PISA); higher = thermal stabilisation; K562 cells, 10 uM, 30 min; active = over 0.2 and 3.5 SD of the protein, either way, in both replicates (recomputed)
saracatinib = compound: CN1CCN(CCOc2cc(OC3CCOCC3)c3c(Nc4c(Cl)ccc5c4OCO5)ncnc3c2)CC1 [saracatinib]
Procedure, shortened: (§1)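 K562 cells at 2×10^6 cells/mL were exposed to 10 μM compound for 30 min, then aliquots were heated for 3 min across 48°C-58°C, pooled, and extracted in PBS containing 0.5% NP-40 at 4°C. The supernatant after 21,000xg for 90 min was taken as soluble protein and measured by TMTpro 16plex LC-MS/MS with channel sums equalised. Thermal stability is reported relative to control samples, with values from duplicates. Fold changes are given on a log2 scale.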

sotrastaurin = compound: CN1CCN(c2nc(C3=C(c4c[nH]c5ccccc45)C(=O)NC3=O)c3ccccc3n2)CC1 [sotrastaurin]
Procedure, shortened: as §1

alvocidib = compound: CN1CC[C@H](c2c(O)cc(O)c3c(=O)cc(-c4ccccc4Cl)oc23)[C@H](O)C1 [alvocidib]
Procedure, shortened: as §1

Tubastatin A = compound: CN1CCc2c(c3ccccc3n2Cc2ccc(C(=O)NO)cc2)C1 [Tubastatin A]
Procedure, shortened: as §1

[1] = compound: CNC(=O)C1=CC=CC=C1NC2=NC(=NC=C2Cl)NC3=C(C=C(C=C3)N4CCOCC4)OC
Procedure, shortened: as §1

defactinib = compound: CNC(=O)c1ccc(Nc2ncc(C(F)(F)F)c(NCc3nccnc3N(C)S(C)(=O)=O)n2)cc1 [defactinib]
Procedure, shortened: as §1

rucaparib = compound: CNCc1ccc(-c2[nH]c3cc(F)cc4c3c2CCNC4=O)cc1 [rucaparib]
Procedure, shortened: as §1

[2] = compound: CNc1nc(-c2ccc3c(N)n[nH]c3c2)cc(N2C[C@@H](C(=O)NC3CCCCC3)CC[C@H]2C)n1
Procedure, shortened: as §1

encorafenib = compound: COC(=O)N[C@@H](C)CNc1nccc(-c2cn(C(C)C)nc2-c2cc(Cl)cc(NS(C)(=O)=O)c2F)n1 [encorafenib]
Procedure, shortened: as §1

[3] = compound: COC(=O)[C@H](CCSC)NC(=O)C1=C(C=C(C=C1)NC[C@H](CS)N)C2=CC=CC=C2
Procedure, shortened: as §1

Row | Target | log2 fold change (saracatinib) | log2 fold change (sotrastaurin) | log2 fold change (alvocidib) | log2 fold change (Tubastatin A) | log2 fold change [1] | log2 fold change (defactinib) | log2 fold change (rucaparib) | log2 fold change [2] | log2 fold change (encorafenib) | log2 fold change [3]
1 | TBCB (UniProt Q99426) | inactive: 0.008 | inactive: -0.023 | inactive: -0.142 | inactive: -0.008 | inactive: 0.013 | inactive: -0.112 | inactive: -0.049 | inactive: -0.002 | inactive: 0.036 | inactive: -0.025
2 | TIMM17B (UniProt O60830) | inactive: 0.032 | inactive: 0.019 | inactive: 0.002 | inactive: -0.092 | inactive: 0.013 | inactive: 0.023 | inactive: -0.023 | inactive: -0.066 | inactive: -0.007 | inactive: 0.072
3 | THOC5 (UniProt Q13769) | inactive: 0.038 | inactive: -0.029 | inactive: -0.044 | inactive: -0.029 | inactive: -0.028 | inactive: -0.034 | inactive: 0.024 | inactive: -0.071 | inactive: -0.002 | inactive: 0.049
4 | TBC1D4 (UniProt O60343) | inactive: 0.021 | inactive: -0.041 | inactive: -0.031 | inactive: 0.025 | inactive: -0.025 | inactive: -0.061 | inactive: -0.016 | inactive: -0.026 | inactive: 0.003 | inactive: -0.017
5 | TES (UniProt Q9UGI8) | inactive: 0.022 | inactive: -0.005 | inactive: -0.03 | inactive: -0.033 | inactive: 0 | inactive: -0.017 | inactive: -0.022 | inactive: -0.029 | inactive: -0.02 | inactive: 0.024
6 | TJAP1 (UniProt Q5JTD0) | inactive: -0.085 | inactive: -0.032 | inactive: 0.086 | inactive: -0.016 | inactive: 0.017 | inactive: -0.15 | inactive: 0.064 | inactive: 0.021 | inactive: -0.064 | inactive: 0.046
7 | TDRD15 (UniProt B5MCY1) | inactive: -0.518 | inactive: 0.099 | inactive: 0.097 | inactive: 0 | inactive: -0.008 | inactive: -0.105 | inactive: -0.161 | inactive: -0.18 | inactive: 0.002 | inactive: -0.436
8 | TGFBR3 (UniProt Q03167) | inactive: -0.081 | inactive: -0.045 | inactive: -0.013 | inactive: -0.007 | inactive: -0.036 | inactive: 0.035 | inactive: 0.008 | inactive: 0.045 | inactive: -0.015 | inactive: -0.01
9 | TERF2 (UniProt Q15554) | inactive: 0.032 | inactive: -0.018 | inactive: 0.021 | inactive: 0.071 | inactive: -0.018 | inactive: 0.106 | inactive: 0.295 | inactive: 0.098 | inactive: 0.169 | inactive: 0.038
10 | TKT, A0A0B4J1R6 | inactive: 0.036 | inactive: 0.142 | inactive: 0.052 | inactive: 0.096 | inactive: -0.123 | inactive: 0.002 | inactive: -0.386 | inactive: -0.065 | inactive: 0.155 | inactive: 0.043
11 | TGM2 (UniProt P21980) | inactive: 0.019 | inactive: 0.024 | inactive: -0.032 | inactive: -0.031 | inactive: -0.065 | inactive: -0.018 | inactive: -0.028 | inactive: -0.016 | inactive: 0.005 | inactive: 0.003
12 | TIMM8B (UniProt Q9Y5J9) | inactive: -0.025 | inactive: 0.142 | inactive: -0.099 | inactive: 0.015 | inactive: 0.064 | inactive: -0.232 | inactive: -0.035 | inactive: -0.083 | inactive: -0.056 | inactive: 0.079
13 | TK2 isoform 6 (UniProt O00142) | inactive: -0.056 | inactive: 0.068 | inactive: 0.181 | inactive: 0.019 | inactive: 0.01 | inactive: -0.023 | inactive: -0.121 | inactive: -0.225 | inactive: -0.266 | inactive: 0.092
14 | TBL1X (UniProt O60907) | inactive: 0.001 | inactive: 0.028 | inactive: 0.017 | inactive: -0.063 | inactive: -0.001 | inactive: 0.012 | inactive: -0.046 | inactive: -0.005 | inactive: 0.017 | inactive: 0.005
15 | THBS4 (UniProt P35443) | inactive: 0.09 | inactive: 0.32 | inactive: 0.109 | inactive: -0.191 | inactive: 0.246 | inactive: 0.021 | inactive: -0.066 | inactive: -0.096 | inactive: -0.075 | inactive: 0.062
16 | TF (UniProt P02787) | inactive: 0.418 | inactive: 0.173 | inactive: 0.072 | inactive: -0.099 | inactive: 0.15 | inactive: 0.003 | inactive: -0.144 | inactive: 0.089 | inactive: 0.111 | inactive: 0.133
17 | TESC (UniProt Q96BS2) | inactive: 0.143 | inactive: 0.028 | inactive: -0.135 | inactive: -0.052 | inactive: 0.01 | inactive: -0.018 | inactive: -0.074 | inactive: -0.157 | inactive: 0.047 | inactive: 0.057
18 | THUMPD2 (UniProt Q9BTF0) | inactive: 0.16 | inactive: 0.008 | inactive: 0.058 | inactive: -0.023 | inactive: 0.032 | inactive: -0.06 | inactive: 0.1 | inactive: 0.031 | inactive: 0.016 | inactive: 0.009
19 | TGS1 (UniProt Q96RS0) | inactive: -0.075 | inactive: -0.028 | inactive: -0.14 | inactive: -0.094 | inactive: -0.03 | inactive: -0.225 | inactive: 0.071 | inactive: 0.14 | inactive: 0.055 | inactive: -0.004
20 | TCEA1 (UniProt P23193) | inactive: -0.008 | inactive: -0.028 | inactive: -0.065 | inactive: -0.021 | inactive: -0.023 | inactive: -0.028 | inactive: -0.029 | inactive: 0.028 | inactive: -0.007 | inactive: 0.007
21 | THOC1 (UniProt Q96FV9) | inactive: 0.003 | inactive: -0.045 | inactive: -0.065 | inactive: 0.032 | inactive: -0.014 | inactive: -0.001 | inactive: 0.217 | inactive: -0.059 | inactive: -0.017 | inactive: 0.085
22 | TGFB1 (UniProt P01137) | inactive: -0.001 | inactive: 0.053 | inactive: 0.02 | inactive: 0.003 | inactive: 0.008 | inactive: -0.022 | inactive: -0.006 | inactive: -0.007 | inactive: 0.004 | inactive: -0.03
23 | TCP1 (UniProt P17987) | inactive: 0.013 | inactive: 0.02 | inactive: -0.001 | inactive: -0.026 | inactive: -0.029 | inactive: -0.004 | inactive: -0.022 | inactive: 0.018 | inactive: 0.012 | inactive: 0.005
24 | TDRKH (UniProt Q9Y2W6) | inactive: -0.04 | inactive: -0.079 | inactive: 0.005 | inactive: 0.047 | inactive: -0.053 | inactive: -0.025 | inactive: -0.038 | inactive: 0.043 | inactive: 0.073 | inactive: -0.032
25 | TBC1D24 (UniProt Q9ULP9) | inactive: -0.025 | inactive: -0.016 | active: -0.379 | inactive: -0.044 | inactive: -0.075 | inactive: -0.106 | inactive: -0.148 | inactive: 0.077 | inactive: -0.011 | inactive: -0.005
26 | TKFC (UniProt Q3LXA3) | inactive: 0.007 | inactive: 0.034 | inactive: -0.012 | inactive: -0.025 | inactive: -0.042 | inactive: -0.03 | inactive: -0.055 | inactive: -0.052 | inactive: -0.021 | inactive: 0.005
27 | TGOLN2 isoform 7 (UniProt O43493) | inactive: -0.045 | inactive: 0.046 | inactive: 0.001 | inactive: -0.012 | inactive: 0.015 | inactive: -0.001 | inactive: -0.034 | inactive: -0.025 | inactive: -0.069 | inactive: 0.037

Single records, from the list above. Order of values: log2 fold change (saracatinib)	log2 fold change (sotrastaurin)	log2 fold change (alvocidib)	log2 fold change (Tubastatin A)	log2 fold change [1]	log2 fold change (defactinib)	log2 fold change (rucaparib)	log2 fold change [2]	log2 fold change (encorafenib)	log2 fold change [3]
TESC (UniProt Q96BS2) reads inactive: 0.143	inactive: 0.028	inactive: -0.135	inactive: -0.052	inactive: 0.01	inactive: -0.018	inactive: -0.074	inactive: -0.157	inactive: 0.047	inactive: 0.057
TKT, A0A0B4J1R6 reads inactive: 0.036	inactive: 0.142	inactive: 0.052	inactive: 0.096	inactive: -0.123	inactive: 0.002	inactive: -0.386	inactive: -0.065	inactive: 0.155	inactive: 0.043
